Assay results as given in patent US20070191267A1, “Use of tyrosine kinase inhibitors for treating cerebral ischemia” (AB SCIENCE, priority 2003, published 2007).
Some of these results come from one statement about several compounds together.

Key:
[1] = biological target: c-Kit WT (UniProt P10721); assay: Ex vivo TK inhibition assay, C-Kit proliferation assay ([3H] thymidine incorporation); conditions: read-out: c-Kit WT IC50
[2] = biological target: T1, c-kit (Homo sapiens, UniProt P10721); assay: In vitro TK inhibition assay (ELISA, phosphorylation of tyrosine containing target peptide); format: biochemical; conditions: purified intracellular domain of c-kit expressed in baculovirus
T1 construct: purified intracellular domain of c-kit expressed in baculovirus; made in house
Description: in Vitro TK Inhibition Assays
Experiments were performed using purified intracellular domain of c-kit expressed in baculovirus. Estimation of the kinase activity was assessed by the phosphorylation of tyrosine containing target peptide estimated by established ELISA assay.

Compound: 3-lodo-4-(4-methyl-piperazin-1-ylmethyl)-N-[4-methyl-3-(4-pyridin-3-yl-thiazol-2-ylmcthyl)-phenyl]-benzamide [Compound 085]
- IC50 [1]: < 10 µM
- IC50 [2]: < 10 µM

Compound: Cc1ccc(NC(=O)c2ccc(CN3CCN(C)CC3)cc2)cc1Nc1nc(-c2ccc(F)cc2)cs1 [Compound 077, N-{3-[4-(4-Fluoro-phenyl)-thiazol-2-ylamino]-4-methyl-phenyl}-4-(4-methyl-piperazin-1-ylmethyl)-benzamide]
- IC50 [1]: < 10 µM

Compound: Cc1ccc(NC(=O)c2ccc(CN3CCN(C)CC3)c(Br)c2)cc1Nc1nc(-c2cccnc2)cs1 [Compound 078, 3-Bromo-4-(4-methyl-piperazin-1-ylmethyl)-N-[4-methyl-3-(4-pyridin-3-yl-thiazol-2-ylamino)-phenyl]-benzamide]
- IC50 [1]: < 10 µM

Compound: Cc1ccc(NC(=O)c2ccc(CN3CCN(C)CC3)c(Cl)c2)cc1Nc1nc(-c2cccnc2)cs1 [Compound 079, 3-Chloro-4-(4-methyl-piperazin-1-ylmethyl)-N-[4-methyl-3-(4-pyridin-3-yl-thiazol-2-ylamino)-phenyl]-benzamide]
- IC50 [1]: < 10 µM

Compound: Cc1ccc(NC(=O)c2ccc(CN3CCN(C)CC3)cc2)cc1Nc1nc(-c2ccncc2)cs1 [Compound 080, 4-(4-Methyl-piperazin-1-ylmethyl)-N-[4-methyl-3-(4-pyridin-4-yl-thiazol-2-ylamino)-phenyl]-benzamide]
- IC50 [1]: < 10 µM

Compound: Cc1ccc(NC(=O)c2ccc(CN3CCN(C)CC3)cc2)cc1Nc1nc(-c2ccc(C#N)cc2)cs1 [Compound 081, N-{3-[4-(4-Cyano-phenyl)-thiazol-2-ylamino]-4-methyl-phenyl}-4-(4-methyl-piperazin-1-ylmethyl)-benzamide]
- IC50 [1]: < 10 µM

Compound: Cc1cncc(-c2csc(Nc3cc(NC(=O)c4ccc(CN5CCN(C)CC5)cc4)ccc3C)n2)c1 [Compound 084, N-{4-Methyl-3-[4-(5-methyl-pyridin-3-yl)-thiazol-2-ylamino]-phenyl}-4-(4-methyl-piperazin-1-ylmethyl)-benzamide]
- IC50 [1]: < 10 µM

Compound: Cc1ccc(NC(=O)c2ccc(CNC(=O)Nc3ccc(C(F)(F)F)cc3)cc2)cc1Nc1nc(-c2cccnc2)cs1 [Compound 086, N-[4-Methyl-3-(4-pyridin-3-yl-thiazol-2-ylamino)-phenyl]-4-[3-(4-trifluoromethyl-phenyl)-ureidomethyl]-benzamide]
- IC50 [1]: < 10 µM

Compound: Cc1ccc(NC(=O)c2cc(Br)c(CNCCCN3CCOCC3)c(Br)c2)cc1Nc1nc(-c2cccnc2)cs1 [Compound 087, 3,5-Dibromo-N-[4-methyl-3-(4-pyridin-3-yl-thiazol-2-ylamino)-phenyl]-4-[(3-morpholin-4-yl-propylamino)-methyl]-benzamide]
- IC50 [1]: < 10 µM

Compound: Cc1ccc(NC(=O)c2cccc(N(C)C)c2)cc1Nc1nc(-c2cccnc2)cs1 [Compound 088, 3-Dimethylamino-N-[4-methyl-3-(4-pyridin-3-yl-thiazol-2-ylamino)-phenyl]-benzamide]
- IC50 [1]: < 10 µM

Compound: Cc1ccc(NC(=O)c2cccc(N3CCN(C)CC3)c2)cc1Nc1nc(-c2cccnc2)cs1 [Compound 089, 3-(4-Methyl-piperazin-1-yl)-N-[4-methyl-3-(4-pyridin-3-yl-thiazol-2-ylamino)-phenyl]-benzamide]
- IC50 [1]: < 10 µM

Compound: Cc1ccc(NC(=O)c2cccc(N3CCOCC3)c2)cc1Nc1nc(-c2cccnc2)cs1 [Compound 090, N-[4-Methyl-3-(4-pyridin-3-yl-thiazol-2-ylamino)-phenyl]-3-morpholin-4-yl-benzamid]
- IC50 [1]: < 10 µM

Compound: Cc1ccc(NC(=O)C2CCC(C(C)(C)C)CC2)cc1Nc1nc(-c2cccnc2)cs1 (stereo not drawn) [Compound 095, 4-tert-Butyl-cyclohexanecarboxylic acid [4-methyl-3-(4-pyridin-3-yl-thiazol-2-ylamino)-phenyl]-amide]
- IC50 [1]: < 10 µM

Compound: Cc1ccc(NC(=O)CCCN2CCOCC2)cc1Nc1nc(-c2cccnc2)cs1 [Compound 096, N-[4-Methyl-3-(4-pyridin-3-yl-thiazol-2-ylamtino)-phenyl]-4-morpholin-4-yl-butyramide]
- IC50 [1]: < 10 µM

Compound: Cc1ccc(NC(=O)OCC(C)C)cc1Nc1nc(-c2cccnc2)cs1 [Compound 097, [4-Methyl-3-(4-pyridin-3-yl-thiazol-2-ylamino)-phenyl]-carbamic acid isobutyl ester]
- IC50 [1]: < 10 µM

Compound: Cc1ccc(NC(=O)c2ccc(C#N)cc2)cc1Nc1nc(-c2cccnc2)cs1 [Compound 103, 4-Cyano-N-[4-methyl-3-(4-pyridin-3-yl-thiazol-2-ylamino)-phenyl]-benzamide]
- IC50 [1]: < 10 µM

Compound: Cc1ccc(C(=O)Nc2ccc(C)c(Nc3nc(-c4cccnc4)cs3)c2)cc1Br [Compound 105, 3-Bromo-4-methyl-N-[4-methyl-3-(4-pyridin-3-yl-thiazol-2-ylamino)-phenyl]-benzamide]
- IC50 [1]: < 10 µM

Compound: Cc1ccc(NC(=O)c2ccc(F)cc2)cc1Nc1nc(-c2cccnc2)cs1 [Compound 106, 4-Fluoro-N-[4-methyl-3-(4-pyridin-3-yl-thiazol-2-ylamino)-phenyl]-benzamide]
- IC50 [1]: < 10 µM

Compound: Cc1ccc(NC(=O)c2cc(Br)c(CN3CCCCC3)c(Br)c2)cc1Nc1nc(-c2cccnc2)cs1 [Compound 107, 3,5-Dibromo-N-[4-methyl-3-(4-pyridin-3-yl-thiazol-2-ylamino)-phenyl]-4-piperidin-1-ylmethyl-benzamide]
- IC50 [1]: < 10 µM

Compound: Cc1ccc(NC(=O)c2ccc(CN3CCN(C)CC3)cc2)cc1Nc1nc(-c2ccc(Cl)cc2)cs1 [Compound 108, N-{3-[4-(4-Chloro-phenyl)-thiazol-2-ylamino]-4-methyl-phenyl}-4-(4-methyl-piperazin-1-ylmethyl)-benzamide]
- IC50 [1]: < 10 µM

Compound: COc1ccc(-c2csc(Nc3cc(NC(=O)c4ccc(CN5CCN(C)CC5)cc4)ccc3C)n2)cc1 [Compound 110, N-{3-[4-(4-Methoxy-phenyl)-thiazol-2-ylamino]-4-methyl-phenyl}-4-(4-methyl-piperazin-1 ylmethyl)-benzamide]
- IC50 [1]: < 10 µM

Compound: Cc1ccc(NC(=O)c2ccc(CN3CCN(C)CC3)cc2)cc1Nc1nc(-c2cccc(F)c2)cs1 [Compound 111, N-{3-[4-(3-Fluoro-phenyl)-thiazol-2-ylamino]-4-methyl-phenyl}-4-(4-methyl-piperazin-1-ylmethyl)-benzamide]
- IC50 [1]: < 10 µM

Compound: COc1cccc(-c2csc(Nc3cc(NC(=O)c4ccc(CN5CCN(C)CC5)cc4)ccc3C)n2)c1 [Compound 113, N-{3-[4-(3-Methoxy-phenyl)-thiazol-2-ylamino]-4-methyl-phenyl}4-(4-methyl-piperazin-1-ylmethyl)-benzamide]
- IC50 [1]: < 10 µM

Compound: Cc1ccc(NC(=O)c2ccc(CN3CCN(C)CC3)cc2)cc1Nc1nc(-c2cccc(C(F)(F)F)c2)cs1 [Compound 116, 4-(4-Methyl-piperazin-1-ylmethyl)-N-{4-methyl-3-[4-(3-trifluoromethyl-phenyl)-thiazol-2-ylamino]-phenyl}-benzamide]
- IC50 [1]: < 10 µM

Compound: Cc1ccc(NC(=O)c2ccc(CN3CCN(C)CC3)cc2)cc1Nc1nc(-c2cccc([N+](=O)[O-])c2)cs1 [Compound 117, N-{4-Methyl-3-[4-(3-nitro-phenyl)-thiazol-2-ylamino]-phenyl}-4-(4-methyl-piperazin-1-ylmethyl)-benzamide]
- IC50 [1]: < 10 µM

Compound: Cc1ccc(NC(=O)c2ccc(CN3CCN(C)CC3)cc2)cc1Nc1nc(-c2ccccc2F)cs1 [Compound 118, N-{3-[4-(2-Fluoro-phenyl)-thiazol-2-ylamino]-4-methyl-phenyl}-4-(4-methyl-piperazin-1-ylmethyl)-benzamides]
- IC50 [1]: < 10 µM

Compound: Cc1ccc(NC(=O)c2ccc(CN3CCN(C)CC3)cc2)cc1Nc1nc(-c2ccccn2)cs1 [Compound 122, 4-(4-Methyl-piperazin-1-ylmethyl)-N-[4-methyl-3-(4-pyridin-2-yl-thiazol-2-ylamino)-phenyl]-benzamide]
- IC50 [1]: < 10 µM

Compound: Cc1ccc(C)c(-c2csc(Nc3cc(NC(=O)c4ccc(CN5CCN(C)CC5)cc4)ccc3C)n2)c1 [Compound 124, N-{3-[4-(2,5-Dimethyl-phenyl)-thiazol-2-ylamino]-4-methyl-phenyl}-4-(4-methyl-piperazin-1-ylmethyl)-benzamide]
- IC50 [1]: < 10 µM

Compound: Cc1ccc(NC(=O)c2cccc(Br)c2)cc1Nc1nc(-c2ccc(Cl)cc2)c(C)s1 [Compound 128, 3-Bromo-N-{3-[4-(4-chloro-phenyl)-5-methyl-thiazol-2-ylamino]-4-methyl-phenyl}-benzamide]
- IC50 [1]: < 10 µM

Compound: Cc1ccc(NC(=O)OCC(C)C)cc1Nc1nc(-c2ccc(Cl)cc2)c(C)s1 [Compound 129, {3-[4-(4-Chloro-phenyl)-5-methyl-thiazol-2-ylamino]-4-methyl-phenyl}-carbamic acid isobutyl ester]
- IC50 [1]: < 10 µM

Compound: CCOC(=O)c1nc(Nc2cc(NC(=O)c3cccc(Br)c3)ccc2C)sc1-c1ccc(Cl)cc1 [Compound 130, 2-[5-(3-Bromo-benzoylamino)-2-methyl-phenylamino]-5-(4-chloro-phenyl)-thiazole-4-carboxylic acid ethyl ester]
- IC50 [1]: < 10 µM

Compound: Cc1ccc(NC(=O)c2cccc(Br)c2)cc1Nc1nc(C(=O)NCCN(C)C)c(-c2ccc(Cl)cc2)s1 [Compound 131, 2-[5-(3-Bromo-benzoylamino)-2-methyl-phenylamino]-5-(4-chloro-phenyl)-thiazole-4-carboxylic acid (2-dimethylamino-ethyl)-amide]
- IC50 [1]: < 10 µM
